Laboratory results taken from patent US20250186602A1, “HUMANIZED ANTIBODY THAT BONDS TO EVA1 PROTEIN OR FUNCTIONAL FRAGMENT THEREOF, ANTIBODY-DRUG CONJUGATE AND CHIMERIC ANTIGEN RECEPTOR” (CURED INC., priority 2022, published 2025).
Changes are numbered by the printed parent chain. Results are given in words; binding and its absence hold for the method and conditions named. Some entries that bind do so weakly or less than the wild type. Sequences can lack the tags named with a protein. Values belong to the binder of their own block, whether it stands above or below them.

Biological target: T1, hEva1-mouse Fc (human, UniProt O60487 27-154, limits assumed)
T1 construct: SPR analyte; the '1' is probably the first concentration (1 nM); also called hEva1-mouse Fc1 (so in the source); not shown: mouse Fc
T1 sequence: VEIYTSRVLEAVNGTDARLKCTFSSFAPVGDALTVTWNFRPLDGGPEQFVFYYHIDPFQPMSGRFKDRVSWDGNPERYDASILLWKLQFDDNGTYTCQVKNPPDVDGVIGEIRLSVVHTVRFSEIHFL
Assay: SPR (BiaCore T200), KD compared with the chimeric antibody

binding: binds
B1: humanized B2E5-48 antibody H2-L2 (antibody, human IgG1, V domains shown)
VH: QVQLVQSGAEVKKPGASVKVSCKASGYTFTNYWMHWVRQAPGQGLEWMGEINPTNGGTDYNEKFQGRVTMTVDKSTSTAYMELSSLRSEDTAVYYCTIYTTALDYWGQGTLVTVSS
VL: EIVLTQSPATLSLSPGERATLSCRASSSVGYMYWYQQKPGQAPRPLIYVTSNRATGIPARFSGSGSGTDYTLTISSLEPEDFAVYYCQQWSSNPPTFGQGTKLEIK
notes: Human IgG1 heavy chain and human kappa light chain vectors; made in HEK293T cells; also called B2E5-H2-L2

binding: binds
B2: humanized B2E5-48 antibody H2-L3 (antibody, human IgG1, V domains shown)
VH: B1 VH
VL: QIQLTQSPSFLSASVGDRVTITCRASSSVGYMYWYQQKPGKAPKPLIYVTSNLASGVPSRFSGSGSGTEYTLTISSLQPEDFATYYCQQWSSNPPTFGQGTKLEIK
notes: Human IgG1 heavy chain and human kappa light chain vectors; made in HEK293T cells

binding: binds
B3: humanized B2E5-48 antibody H2-L4 (antibody, human IgG1, V domains shown)
VH: B1 VH
VL: B2 VL with Q1D
notes: as for B2

binding: binds
B4: humanized B2E5-48 antibody H1-L4 (antibody, human IgG1, V domains shown)
VH: B1 VH with M48I, M70L, T76S
VL: B2 VL with Q1D
notes: as for B2
